Results: article PMC7383879, “HSI2/VAL1 and HSL1/VAL2 function redundantly to repress DOG1 expression in Arabidopsis seeds and seedlings”
Results are given in words; binding and its absence hold for the method and conditions named. In cells and extracts the contact can be indirect. A result given as binding can be weak or reduced; the word gives no strength. Where a sequence is shown, tags or fusion partners need not be part of it. One block for each molecule: values may come before it.

By UniProt entry, the sequences of proteins in these tests, tags left out. Where a name states a change or a piece, a line headed by the entry shows the natural chain unless it says otherwise.
UniProt Q8W4L5: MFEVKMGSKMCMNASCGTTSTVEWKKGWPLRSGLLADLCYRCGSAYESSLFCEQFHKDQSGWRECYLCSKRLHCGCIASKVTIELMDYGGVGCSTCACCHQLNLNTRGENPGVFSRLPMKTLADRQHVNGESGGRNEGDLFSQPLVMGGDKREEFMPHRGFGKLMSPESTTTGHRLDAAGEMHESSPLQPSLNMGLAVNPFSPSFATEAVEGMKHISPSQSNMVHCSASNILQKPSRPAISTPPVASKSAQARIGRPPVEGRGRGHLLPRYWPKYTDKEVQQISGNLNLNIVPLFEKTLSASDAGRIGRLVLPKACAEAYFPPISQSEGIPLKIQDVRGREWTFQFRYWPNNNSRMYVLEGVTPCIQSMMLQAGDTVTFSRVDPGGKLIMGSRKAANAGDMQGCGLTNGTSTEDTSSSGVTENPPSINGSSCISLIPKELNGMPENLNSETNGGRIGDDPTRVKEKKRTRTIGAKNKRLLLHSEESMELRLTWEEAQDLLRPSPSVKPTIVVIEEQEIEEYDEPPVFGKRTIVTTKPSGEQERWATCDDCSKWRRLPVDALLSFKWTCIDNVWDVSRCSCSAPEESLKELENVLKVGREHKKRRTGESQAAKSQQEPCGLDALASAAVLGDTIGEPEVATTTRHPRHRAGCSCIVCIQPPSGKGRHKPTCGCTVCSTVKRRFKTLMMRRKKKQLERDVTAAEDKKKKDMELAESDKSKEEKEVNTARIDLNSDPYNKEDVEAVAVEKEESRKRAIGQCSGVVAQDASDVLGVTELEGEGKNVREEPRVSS

How the values were obtained:
Assay in all cases: split reporter; BiFC: nEYFP and cEYFP fusions, Agrobacterium GV2260 co-infiltrated into tobacco (N. benthamiana) leaves; YFP fluorescence by confocal microscopy after 2 d
[1] = molecular target: T1, HSI2‐LIKE1 (HSL1), BiFC fusion (Arabidopsis thaliana) (UniProt Q5CCK4)
T1 sequence: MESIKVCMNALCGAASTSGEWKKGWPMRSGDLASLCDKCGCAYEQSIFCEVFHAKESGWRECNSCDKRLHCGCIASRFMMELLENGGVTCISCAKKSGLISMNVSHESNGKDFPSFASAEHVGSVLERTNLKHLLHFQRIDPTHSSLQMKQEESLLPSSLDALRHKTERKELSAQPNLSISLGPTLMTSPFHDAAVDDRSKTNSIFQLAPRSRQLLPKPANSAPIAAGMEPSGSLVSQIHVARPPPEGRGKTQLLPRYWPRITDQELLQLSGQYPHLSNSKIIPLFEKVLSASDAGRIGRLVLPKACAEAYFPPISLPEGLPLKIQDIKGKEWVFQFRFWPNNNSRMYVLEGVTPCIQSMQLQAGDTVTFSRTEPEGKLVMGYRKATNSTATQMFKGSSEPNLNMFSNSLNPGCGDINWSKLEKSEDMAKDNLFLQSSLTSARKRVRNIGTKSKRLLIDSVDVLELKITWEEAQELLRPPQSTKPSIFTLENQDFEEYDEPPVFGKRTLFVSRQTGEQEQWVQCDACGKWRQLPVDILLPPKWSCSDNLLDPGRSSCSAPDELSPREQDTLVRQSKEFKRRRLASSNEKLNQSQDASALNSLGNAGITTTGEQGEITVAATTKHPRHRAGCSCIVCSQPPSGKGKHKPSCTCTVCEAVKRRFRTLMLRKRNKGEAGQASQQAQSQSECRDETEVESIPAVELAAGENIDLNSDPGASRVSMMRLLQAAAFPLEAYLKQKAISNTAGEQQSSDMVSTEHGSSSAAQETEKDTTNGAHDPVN

[2] = molecular target: B3 domain of HSL1 (B3_(HSL1)), BiFC fusion (Arabidopsis thaliana)
[3] = molecular target: B3 domain of HSI2 (B3_(HSI2)), BiFC fusion (Arabidopsis thaliana)

- binding [1]: binds
Molecule: HSI2mB3 (HSI2 with a mutated B3 domain), BiFC fusion (from UniProt Q8W4L5)

- binding [2]: binds
- binding [3]: binds
B1: LIKE HETEROCHROMATIN PROTEIN1 (LHP1), BiFC fusion (protein, UniProt Q946J8 1-445)
chain: MKGASGAVKKKPQVLNEAGEAETAVETVGESRKISGDGGFGSDDGGGGGGGGSGESILREIGDDRPTEDGDEEEEEDEDEDDGGDEEDEEGEGEGGQEERPKLDEGFYEIEAIRRKRVRKGKVQYLIKWRGWPETANTWEPLENLQSIADVIDAFEGSLKPGKPGRKRKRKYAGPHSQMKKKQRLTSTSHDATEKSDSSTSLNNSSLPDIPDPLDLSGSSLLNRDVEAKNAYVSNQVEANSGSVGMARQVRLIDNEKEYDPTLNELRGPVNNSNGAGCSQGGGIGSEGDNVRPNGLLKVYPKELDKNSRFIGAKRRKSGSVKRFKQDGSTSNNHTAPTDQNLTPDLTTLDSFGRIARMGNEYPGVMENCNLSQKTKIEELDITKILKPMSFTASVSDNVQEVLVTFLALRSDGKEALVDNRFLKAHNPHLLIEFYEQHLKYNRTP
